The list shows a part of the results. Hit calls seldom repeat between salt and free forms of one compound.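 In K562 cells expressing nanoluciferase-fused kinases, luminescence was recorded at 4 h intervals between 2 and 18 h, normalized as percent of control with DMSO at 100% and a positive control at 0%. A significant (2 sigma) signal drop marks a time point as decreased. The authors' rule for a hit is not shown and takes in more than the number of time points.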
Key:
Assay in all cases: kinase-Nluc reporter destabilization hit call (1 = scored as downregulated) (binary); higher = compound decreases kinase abundance
Conditions in all cases: K562; 2-18 h
[1] = molecular target: ABL1 (UniProt P00519)
[2] = molecular target: AKT1 (UniProt P31749)
[3] = molecular target: ALK (UniProt Q9UM73)
[4] = molecular target: ARAF (UniProt P10398)
[5] = molecular target: AURKA (UniProt O14965)
[6] = molecular target: AURKB (UniProt Q96GD4)
[7] = molecular target: AURKC (UniProt Q9UQB9)
[8] = molecular target: BLK (UniProt P51451)
[9] = molecular target: BMX (UniProt P51813)
[10] = molecular target: BRAF (UniProt P15056)
[11] = tested on: BRAF_V600E
[12] = molecular target: BTK (UniProt Q06187)
[13] = molecular target: CAMK2A (UniProt Q9UQM7)
[14] = molecular target: CAMK2G (UniProt Q13555)
[15] = molecular target: CDK10 (UniProt Q15131)
[16] = molecular target: CDK2 (UniProt P24941)
[17] = molecular target: CDK3 (UniProt Q00526)
[18] = molecular target: CDK4 (UniProt P11802)
[19] = molecular target: CDK5 (UniProt Q00535)
[20] = molecular target: CDK6 (UniProt Q00534)

Protein sequences, listed by entry. Tags and fused reporters are not part of them. Lines headed by an entry give the natural chain unless they say otherwise; changes in a name come on top.
UniProt P00519, whole entry: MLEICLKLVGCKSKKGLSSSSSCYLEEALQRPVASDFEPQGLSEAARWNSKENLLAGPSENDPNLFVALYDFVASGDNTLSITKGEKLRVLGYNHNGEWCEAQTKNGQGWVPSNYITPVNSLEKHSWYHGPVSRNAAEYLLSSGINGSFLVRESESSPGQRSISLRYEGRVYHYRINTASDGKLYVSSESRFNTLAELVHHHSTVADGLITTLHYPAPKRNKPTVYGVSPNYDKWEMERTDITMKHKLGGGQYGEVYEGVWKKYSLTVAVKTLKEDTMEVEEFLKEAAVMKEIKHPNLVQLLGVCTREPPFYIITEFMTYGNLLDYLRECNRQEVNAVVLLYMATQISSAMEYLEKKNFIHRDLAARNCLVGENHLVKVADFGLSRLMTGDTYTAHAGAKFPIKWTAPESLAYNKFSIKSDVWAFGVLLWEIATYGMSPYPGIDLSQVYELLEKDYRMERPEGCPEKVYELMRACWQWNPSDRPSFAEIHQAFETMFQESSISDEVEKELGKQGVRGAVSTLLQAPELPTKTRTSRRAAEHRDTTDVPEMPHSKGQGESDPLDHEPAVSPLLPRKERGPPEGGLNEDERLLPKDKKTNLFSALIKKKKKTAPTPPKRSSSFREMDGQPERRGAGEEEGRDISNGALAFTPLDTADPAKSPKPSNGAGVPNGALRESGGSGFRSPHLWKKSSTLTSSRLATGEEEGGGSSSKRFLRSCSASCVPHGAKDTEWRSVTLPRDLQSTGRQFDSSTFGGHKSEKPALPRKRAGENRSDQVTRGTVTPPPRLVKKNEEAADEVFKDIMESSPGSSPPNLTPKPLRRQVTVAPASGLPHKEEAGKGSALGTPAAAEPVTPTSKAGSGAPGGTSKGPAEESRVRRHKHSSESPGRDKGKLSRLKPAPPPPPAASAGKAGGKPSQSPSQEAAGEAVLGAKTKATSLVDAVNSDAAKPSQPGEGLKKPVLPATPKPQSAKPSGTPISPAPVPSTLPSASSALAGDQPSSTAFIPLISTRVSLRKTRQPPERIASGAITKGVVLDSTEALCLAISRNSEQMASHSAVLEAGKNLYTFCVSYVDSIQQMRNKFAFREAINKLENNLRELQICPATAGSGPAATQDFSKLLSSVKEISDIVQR
UniProt Q9UM73: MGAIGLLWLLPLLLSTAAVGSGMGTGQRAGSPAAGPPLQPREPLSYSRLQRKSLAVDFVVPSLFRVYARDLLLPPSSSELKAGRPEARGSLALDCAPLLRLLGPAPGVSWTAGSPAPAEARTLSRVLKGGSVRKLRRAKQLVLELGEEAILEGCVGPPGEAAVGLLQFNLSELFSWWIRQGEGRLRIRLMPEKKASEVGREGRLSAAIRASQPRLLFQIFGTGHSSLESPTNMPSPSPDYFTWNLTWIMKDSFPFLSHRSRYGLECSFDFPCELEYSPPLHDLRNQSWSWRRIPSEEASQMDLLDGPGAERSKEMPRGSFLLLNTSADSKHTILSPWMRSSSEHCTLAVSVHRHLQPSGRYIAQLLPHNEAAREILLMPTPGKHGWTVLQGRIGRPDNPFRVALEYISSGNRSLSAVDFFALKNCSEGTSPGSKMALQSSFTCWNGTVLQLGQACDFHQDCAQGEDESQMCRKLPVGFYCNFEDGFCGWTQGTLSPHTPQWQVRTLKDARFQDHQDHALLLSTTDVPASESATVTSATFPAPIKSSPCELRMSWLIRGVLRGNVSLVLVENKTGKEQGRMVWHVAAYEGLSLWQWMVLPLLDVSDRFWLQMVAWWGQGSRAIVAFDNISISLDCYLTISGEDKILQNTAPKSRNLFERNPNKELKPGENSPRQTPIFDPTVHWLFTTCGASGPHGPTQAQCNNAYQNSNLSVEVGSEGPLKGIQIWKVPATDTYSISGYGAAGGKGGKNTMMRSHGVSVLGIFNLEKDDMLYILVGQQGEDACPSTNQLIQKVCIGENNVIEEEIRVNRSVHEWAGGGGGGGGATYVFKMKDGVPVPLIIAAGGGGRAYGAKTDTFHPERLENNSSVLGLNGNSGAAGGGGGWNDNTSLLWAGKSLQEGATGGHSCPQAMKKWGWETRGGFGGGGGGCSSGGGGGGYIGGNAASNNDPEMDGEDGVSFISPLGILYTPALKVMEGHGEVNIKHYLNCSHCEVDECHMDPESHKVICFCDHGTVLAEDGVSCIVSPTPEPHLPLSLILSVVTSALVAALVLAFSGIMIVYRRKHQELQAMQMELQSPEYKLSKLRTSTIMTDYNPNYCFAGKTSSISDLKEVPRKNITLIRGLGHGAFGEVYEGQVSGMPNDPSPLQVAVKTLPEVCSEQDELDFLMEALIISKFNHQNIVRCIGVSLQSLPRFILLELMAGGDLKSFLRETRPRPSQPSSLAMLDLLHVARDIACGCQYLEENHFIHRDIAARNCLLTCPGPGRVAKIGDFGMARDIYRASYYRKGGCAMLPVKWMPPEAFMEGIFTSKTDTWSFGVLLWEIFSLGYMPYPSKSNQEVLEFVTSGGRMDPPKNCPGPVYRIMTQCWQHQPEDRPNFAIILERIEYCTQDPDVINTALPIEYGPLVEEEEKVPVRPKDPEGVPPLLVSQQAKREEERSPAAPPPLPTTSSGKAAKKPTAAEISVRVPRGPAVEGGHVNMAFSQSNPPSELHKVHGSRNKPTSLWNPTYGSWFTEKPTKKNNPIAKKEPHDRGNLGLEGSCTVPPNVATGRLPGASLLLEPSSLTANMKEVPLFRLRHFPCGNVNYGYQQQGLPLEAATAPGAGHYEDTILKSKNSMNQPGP
UniProt P10398: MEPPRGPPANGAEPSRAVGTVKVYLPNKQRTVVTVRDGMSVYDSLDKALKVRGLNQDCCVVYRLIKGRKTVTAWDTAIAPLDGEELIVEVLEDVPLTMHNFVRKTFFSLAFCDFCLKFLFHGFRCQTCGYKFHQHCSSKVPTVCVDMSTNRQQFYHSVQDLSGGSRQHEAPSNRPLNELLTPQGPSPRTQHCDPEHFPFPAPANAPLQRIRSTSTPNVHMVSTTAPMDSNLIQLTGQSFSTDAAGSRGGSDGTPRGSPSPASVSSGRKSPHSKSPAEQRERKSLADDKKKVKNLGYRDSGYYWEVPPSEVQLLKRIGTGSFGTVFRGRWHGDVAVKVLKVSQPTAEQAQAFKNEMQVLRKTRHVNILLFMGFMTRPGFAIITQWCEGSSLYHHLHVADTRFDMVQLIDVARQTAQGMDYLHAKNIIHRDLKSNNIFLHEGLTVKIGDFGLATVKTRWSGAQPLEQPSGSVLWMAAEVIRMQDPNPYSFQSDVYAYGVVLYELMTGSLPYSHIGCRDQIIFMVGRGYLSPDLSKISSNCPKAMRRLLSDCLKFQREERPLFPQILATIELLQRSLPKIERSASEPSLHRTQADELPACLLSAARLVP
UniProt O14965: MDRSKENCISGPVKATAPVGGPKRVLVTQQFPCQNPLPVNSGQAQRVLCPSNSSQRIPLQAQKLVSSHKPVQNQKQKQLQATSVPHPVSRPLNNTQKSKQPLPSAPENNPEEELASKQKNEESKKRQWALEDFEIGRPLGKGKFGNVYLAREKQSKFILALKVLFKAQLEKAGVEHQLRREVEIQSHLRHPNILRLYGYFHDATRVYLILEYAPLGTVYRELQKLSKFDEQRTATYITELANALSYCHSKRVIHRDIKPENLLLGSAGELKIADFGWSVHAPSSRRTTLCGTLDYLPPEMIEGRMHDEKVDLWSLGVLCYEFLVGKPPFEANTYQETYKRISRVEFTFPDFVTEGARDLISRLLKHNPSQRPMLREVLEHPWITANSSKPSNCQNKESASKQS
UniProt Q9UQB9: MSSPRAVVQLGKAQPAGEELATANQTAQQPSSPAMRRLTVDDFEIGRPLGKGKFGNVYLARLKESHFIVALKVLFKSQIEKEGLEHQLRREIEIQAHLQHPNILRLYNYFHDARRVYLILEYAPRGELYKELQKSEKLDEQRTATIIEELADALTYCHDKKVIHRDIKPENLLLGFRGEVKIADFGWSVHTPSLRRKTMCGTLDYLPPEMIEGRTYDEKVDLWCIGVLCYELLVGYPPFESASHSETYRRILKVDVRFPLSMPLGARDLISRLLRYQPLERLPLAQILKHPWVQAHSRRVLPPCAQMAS
UniProt P51451: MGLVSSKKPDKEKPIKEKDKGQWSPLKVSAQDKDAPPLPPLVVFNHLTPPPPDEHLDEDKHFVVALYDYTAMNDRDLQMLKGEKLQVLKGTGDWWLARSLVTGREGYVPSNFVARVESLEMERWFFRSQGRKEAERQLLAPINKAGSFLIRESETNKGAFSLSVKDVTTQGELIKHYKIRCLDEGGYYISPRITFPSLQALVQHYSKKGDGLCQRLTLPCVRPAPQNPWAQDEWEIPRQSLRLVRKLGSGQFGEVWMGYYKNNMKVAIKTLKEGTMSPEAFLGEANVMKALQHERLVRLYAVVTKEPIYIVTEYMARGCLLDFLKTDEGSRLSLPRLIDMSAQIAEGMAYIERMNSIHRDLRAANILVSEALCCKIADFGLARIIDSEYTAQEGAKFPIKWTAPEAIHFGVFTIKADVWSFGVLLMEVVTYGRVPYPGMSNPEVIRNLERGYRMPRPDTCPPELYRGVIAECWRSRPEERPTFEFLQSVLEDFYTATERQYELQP
UniProt P15056, whole entry, looked up: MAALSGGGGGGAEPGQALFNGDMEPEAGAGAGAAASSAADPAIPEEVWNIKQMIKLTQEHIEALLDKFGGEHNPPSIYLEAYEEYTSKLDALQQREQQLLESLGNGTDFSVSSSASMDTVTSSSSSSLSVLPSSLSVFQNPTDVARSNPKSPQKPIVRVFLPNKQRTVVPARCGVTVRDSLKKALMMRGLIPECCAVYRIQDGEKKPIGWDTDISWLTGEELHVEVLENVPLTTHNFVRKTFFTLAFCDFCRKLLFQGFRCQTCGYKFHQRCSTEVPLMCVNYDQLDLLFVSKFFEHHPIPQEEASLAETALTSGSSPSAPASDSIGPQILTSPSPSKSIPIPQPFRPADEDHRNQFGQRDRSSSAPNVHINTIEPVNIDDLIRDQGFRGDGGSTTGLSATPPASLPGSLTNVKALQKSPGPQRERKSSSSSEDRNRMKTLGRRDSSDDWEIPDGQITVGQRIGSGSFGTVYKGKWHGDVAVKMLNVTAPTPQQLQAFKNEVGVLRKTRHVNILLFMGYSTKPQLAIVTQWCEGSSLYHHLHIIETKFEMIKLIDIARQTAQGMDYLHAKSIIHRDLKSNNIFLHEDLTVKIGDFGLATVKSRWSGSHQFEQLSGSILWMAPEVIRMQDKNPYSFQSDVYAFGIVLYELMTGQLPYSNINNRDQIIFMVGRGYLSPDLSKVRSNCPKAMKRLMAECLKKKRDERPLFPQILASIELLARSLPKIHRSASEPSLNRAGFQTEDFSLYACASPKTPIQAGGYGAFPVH
UniProt Q13555: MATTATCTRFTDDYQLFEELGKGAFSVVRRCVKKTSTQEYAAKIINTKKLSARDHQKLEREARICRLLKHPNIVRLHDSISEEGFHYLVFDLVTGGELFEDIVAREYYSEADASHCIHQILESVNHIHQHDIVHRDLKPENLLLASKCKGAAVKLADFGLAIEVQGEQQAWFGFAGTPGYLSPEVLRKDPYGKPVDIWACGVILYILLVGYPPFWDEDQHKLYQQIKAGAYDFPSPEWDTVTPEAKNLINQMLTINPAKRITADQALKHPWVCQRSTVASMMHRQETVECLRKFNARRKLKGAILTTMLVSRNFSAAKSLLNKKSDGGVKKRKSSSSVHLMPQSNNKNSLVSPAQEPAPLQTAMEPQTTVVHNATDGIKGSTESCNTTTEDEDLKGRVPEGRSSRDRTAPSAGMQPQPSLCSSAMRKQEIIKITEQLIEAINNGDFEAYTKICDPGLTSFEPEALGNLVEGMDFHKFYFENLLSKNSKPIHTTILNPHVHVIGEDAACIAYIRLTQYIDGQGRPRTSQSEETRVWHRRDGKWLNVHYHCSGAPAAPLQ
UniProt Q15131: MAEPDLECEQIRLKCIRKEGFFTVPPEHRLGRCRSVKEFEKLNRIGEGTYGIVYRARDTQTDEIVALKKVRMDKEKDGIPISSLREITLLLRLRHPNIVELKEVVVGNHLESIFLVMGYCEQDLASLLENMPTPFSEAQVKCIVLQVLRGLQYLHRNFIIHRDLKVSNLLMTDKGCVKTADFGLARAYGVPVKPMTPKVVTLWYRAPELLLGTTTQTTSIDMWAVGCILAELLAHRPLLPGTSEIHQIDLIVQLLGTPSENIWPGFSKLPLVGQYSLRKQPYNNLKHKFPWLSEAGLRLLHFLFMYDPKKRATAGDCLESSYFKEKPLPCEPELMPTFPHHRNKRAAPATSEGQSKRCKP
UniProt Q00535, whole entry, looked up: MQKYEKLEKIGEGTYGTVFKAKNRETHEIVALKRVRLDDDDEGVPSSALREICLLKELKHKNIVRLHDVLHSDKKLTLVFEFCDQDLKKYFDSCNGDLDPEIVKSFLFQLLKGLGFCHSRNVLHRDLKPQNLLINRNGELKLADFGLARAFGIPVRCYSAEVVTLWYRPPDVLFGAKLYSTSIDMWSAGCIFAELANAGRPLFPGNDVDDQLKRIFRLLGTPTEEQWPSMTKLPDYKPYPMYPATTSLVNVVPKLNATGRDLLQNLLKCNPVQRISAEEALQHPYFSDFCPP

Measured: kinase-Nluc reporter destabilization hit call

Cc1cc(O)c2c(c1)C(=O)c1cc(O)cc(O)c1C2=O [Emodin] (10 µM)
inactive: [1] 0 | [2] 0 | [3] 0 | [4] 0 | [5] 0 | [6] 0 | [7] 0 | [8] 0 | [9] 0 | [10] 0 | [11] 0 | [12] 0 | [13] 0 | [14] 0 | [15] 0 | [16] 0 | [17] 0 | [18] 0 | [19] 0 | [20] 0

COc1cc(/C=C/C(=O)NCC(O)c2ccc(O)cc2)ccc1O (stereo not given) [N-Feruloyloctopamine] (2.5 µM)
inactive: [1] 0 | [2] 0 | [3] 0 | [4] 0 | [5] 0 | [6] 0 | [7] 0 | [8] 0 | [9] 0 | [10] 0 | [11] 0 | [12] 0 | [13] 0 | [14] 0 | [15] 0 | [16] 0 | [17] 0 | [18] 0 | [19] 0 | [20] 0

Cn1cc(-c2ccc3c(c2)CCN3C(=O)Cc2cccc(C(F)(F)F)c2)c2c(N)ncnc21 (2.5 µM)
inactive: [1] 0 | [2] 0 | [3] 0 | [4] 0 | [5] 0 | [6] 0 | [7] 0 | [8] 0 | [9] 0 | [10] 0 | [11] 0 | [12] 0 | [13] 0 | [14] 0 | [15] 0 | [16] 0 | [17] 0 | [18] 0 | [19] 0 | [20] 0

Cc1ccc(CNc2ncnc3ccc(-c4ccc(CO)o4)cc23)o1 (10 µM)
inactive: [1] 0 | [2] 0 | [3] 0 | [4] 0 | [5] 0 | [6] 0 | [7] 0 | [8] 0 | [9] 0 | [10] 0 | [11] 0 | [12] 0 | [13] 0 | [14] 0 | [15] 0 | [16] 0 | [17] 0 | [18] 0 | [19] 0 | [20] 0

COc1ccc2c(OCc3nnc4ccc(-c5ccccc5)nn34)ccnc2c1 (2 µM)
inactive: [1] 0 | [2] 0 | [3] 0 | [4] 0 | [5] 0 | [6] 0 | [7] 0 | [8] 0 | [9] 0 | [10] 0 | [11] 0 | [12] 0 | [13] 0 | [14] 0 | [15] 0 | [16] 0 | [17] 0 | [18] 0 | [19] 0 | [20] 0

COc1ccccc1-c1cc(Nc2cccc(CS(N)(=O)=O)c2)ncn1 (10 µM)
inactive: [1] 0 | [2] 0 | [3] 0 | [4] 0 | [5] 0 | [6] 0 | [7] 0 | [8] 0 | [9] 0 | [10] 0 | [11] 0 | [12] 0 | [13] 0 | [14] 0 | [15] 0 | [16] 0 | [17] 0 | [18] 0 | [19] 0 | [20] 0

O=C1NC(=O)/C(=C\c2cccc(C(F)(F)F)c2)S1 (2.5 µM)
inactive: [1] 0 | [2] 0 | [3] 0 | [4] 0 | [5] 0 | [6] 0 | [7] 0 | [8] 0 | [9] 0 | [10] 0 | [11] 0 | [12] 0 | [13] 0 | [14] 0 | [15] 0 | [16] 0 | [17] 0 | [18] 0 | [19] 0 | [20] 0

S=C(SSC(=S)N1CCOCC1)N1CCOCC1 (10 µM)
inactive: [1] 0 | [2] 0 | [3] 0 | [4] 0 | [5] 0 | [6] 0 | [7] 0 | [8] 0 | [9] 0 | [10] 0 | [11] 0 | [12] 0 | [13] 0 | [14] 0 | [15] 0 | [16] 0 | [17] 0 | [18] 0 | [19] 0 | [20] 0
